Measurements reported in patent US20180327500A1.

How the values were obtained:
[1] = biological target: His tagged cynomolgus MET ECD (Sinobiological) (cynomolgus); assay: SPR (Bio-Rad XPR-36)
Mouse Blade 6-IPT4 = assay: flow cytometry on transfected HEK293 cells
Mouse PSI -IPT4 = assay: flow cytometry on transfected HEK293 cells
Mouse Blade 1-2 = assay: flow cytometry on transfected HEK293 cells
Mouse blade 7-IPT4 = assay: flow cytometry on transfected HEK293 cells
Mouse blade 4 = assay: flow cytometry on transfected HEK293 cells
Mouse blade 5a = assay: flow cytometry on transfected HEK293 cells
LS1 = assay: flow cytometry on transfected HEK293 cells
Mouse Blade 1 = assay: flow cytometry on transfected HEK293 cells
Chicken IPT1 domain = assay: flow cytometry on transfected HEK293 cells
Chicken PSI domain = assay: flow cytometry on transfected HEK293 cells
Chicken IPT3 domain = assay: flow cytometry on transfected HEK293 cells
Chicken IPT4 domain = assay: flow cytometry on transfected HEK293 cells
Mouse Blade 5b = assay: flow cytometry on transfected HEK293 cells
Chicken IPT2 domain = assay: flow cytometry on transfected HEK293 cells
[2] = biological target: His tagged cynomolgus MET ECD (Sinobiological) (cynomolgus); assay: kinetic binding analysis (SPR)
Mouse blade 3 = assay: flow cytometry on transfected HEK293 cells

Measured: binding

B1: humanized antibody 9006 (antibody, human IgG1, kappa, V domains shown)
VH: QVQLVQSGSELKKPGASVKVSCKASGYTFTNFRMNWVKQAPGQGLKWMGWINTYTGEPTYVDDLKGRFVFSLDTSVSTAYLQISSLKAEDTAVYYCARKGIARAMDYWGQGTTVTVSS
VL: DIVMTQSPDSLAVSLGERATINCKSSQSLLDSGNQKNYLAWYQQKPGQPPKLLIFGASTRESGVPDRFSGSGSGTDFTLTISSLQAEDVAVYYCQNDHSYPYTFGQGTKLEIKR
not listed: Mouse blade 3
binds: all other assays above

B2: humanized antibody 9338 (antibody, human IgG1, kappa, V domains shown)
VH: QVQLVQSGAEVKKPGSSVKVSCKASGYTFTSYWMHWVRQAPGQGLEWMGYINPSSGHIENNQKFKDRVTITADKSTSTAYMELSSLRSEDTAVYYCARGRFAYWGQGTLVTVSS
VL: EIVLTQSPATLSLSPGERATLSCSASSSVSSGYLYWYQQKPGQAPRLLIYSTSNLASGIPARFSGSGSGTDFTLTISSLEPEDFAVYYCHQWSSYPFTFGSGTKLEIKR
binds: [1] | Mouse blade 3 | Chicken IPT1 domain | Chicken PSI domain | Chicken IPT3 domain | Chicken IPT4 domain | Chicken IPT2 domain | [2]

Results are given in words; binding and its absence hold for the method and conditions named. Binding calls can cover weak binding; strength is not graded here.
